{"source": "patent US7901498B2", "about": "“Trisazo compound, ink composition, printing method and colored product” (Nippon Kayaku Kabushiki Kaisha, priority 2007, dated 2011)", "test": "Light fastness test of inkjet-printed images, xenon weatherometer (coloring matter residual rate)", "assay_type": "physicochemical", "details": "96 hours xenon", "experimental": "The components described below were mixed to obtain a black ink composition of the present invention, and then foreign substances were filtered off using a 0.45 μm membrane filter. Hereinafter, the obtained ink composition was referred to as “ink”.\nIn addition, ion-exchanged water was used as water. In ink preparation, the pH of ink was adjusted to pH 7 to 9 with sodium hydroxide and after that, ion-exchanged water was added to make the total amount 100 parts.\nUsing each ink obtained in the above manner, inkjet printing was performed on three kinds of information recording sheet (inkjet special paper), glossy paper 1 [trade name: Professional Photopaper PR-101, manufactured by Canon Inc.], glossy paper 2 [trade name: Photo Paper CRISPIA (highly glossy), manufactured by Seiko-Epson Corporation], glossy paper 3 [trade name: Advanced Photo Paper (glossy), manufactured by Hewlett-Packard Development Company] by an inkjet printer (trade name: PIXUS® iP4100) manufactured by Canon Inc.\nIn printing, an image pattern was made so that several gradations in reflection density were obtained, and black printed matter was obtained.\nUsing a colorimeter (trade name: SpectroEye®) manufactured by GRETAG-MACBETH, change in printed image density was measured by measuring, after the test, the gradation part where the reflection density, D value, was nearest to 1.0 on each printed image before the test.\nUsing a low temperature xenon weatherometer (trade name: XL75) manufactured by Suga Test Instruments Co., Ltd., each printed image described above was irradiated for 96 hours under the conditions of a luxilluminance of 100,000, a humidity of 60% RH and a temperature of 24° C. and then measured using the above colorimeter, and the coloring matter residual rate of each image was calculated from the formula (reflection density after test/reflection density before test)×100 (%). The test results are evaluated according to the following criteria. • ◯: Residual rate is 85% or more. • Δ: Residual rate is 80% or more and less than 85%. • ×: Residual rate is less than 80%.", "note": "Some of these results come from one statement about several compounds together."}
{"compound": "COCCSc1nnc(N=Nc2cc(OCCCS(=O)(=O)O)c(N=Nc3c(S(=O)(=O)O)cc4ccc(N=Nc5c(C)c(C#N)c6nc7ccccc7n6c5O)cc4c3O)cc2C)s1.CS(=O)(=O)O", "note": "[compound 15]", "values": [{"measurement": "coloring matter residual rate, light fastness test", "setting": "on any glossy paper (1, 2, 3)", "result": "≥ 85", "unit": "%"}]}
{"compound": "CS(=O)(=O)O.Cc1cc(N=Nc2c(S(=O)(=O)O)cc3c(S(=O)(=O)O)c(N=Nc4c(C)c(C#N)c5nc6ccccc6n5c4O)ccc3c2O)c(OCCCS(=O)(=O)O)cc1N=Nc1nnc(SCCS(=O)(=O)O)s1", "note": "[Example 10]", "values": [{"measurement": "coloring matter residual rate, light fastness test", "setting": "glossy paper 1", "result": "≥ 85", "unit": "%"}, {"measurement": "coloring matter residual rate, light fastness test", "setting": "glossy paper 3", "result": "≥ 85", "unit": "%"}]}
{"compound": "CS(=O)(=O)O.Cc1cc(N=Nc2c(S(=O)(=O)O)cc3cc(S(=O)(=O)O)c(N=Nc4c(C)c(C#N)c5nc6ccccc6n5c4O)cc3c2O)c(OCCCS(=O)(=O)O)cc1N=Nc1nnc(SCCS(=O)(=O)O)s1", "note": "[compound 16]", "values": [{"measurement": "coloring matter residual rate, light fastness test", "setting": "on any glossy paper (1, 2, 3)", "result": "≥ 85", "unit": "%"}]}
{"compound": "CS(=O)(=O)O.Cc1cc(N=Nc2c(S(=O)(=O)O)cc3cc(N=Nc4c(C)c(C#N)c5nc6ccccc6n5c4O)ccc3c2O)c(N(CCO)CCCO)cc1N=Nc1nnc(SCCS(=O)(=O)O)s1", "note": "[compound 14]", "values": [{"measurement": "coloring matter residual rate, light fastness test", "setting": "on any glossy paper (1, 2, 3)", "result": "≥ 85", "unit": "%"}]}
{"compound": "CS(=O)(=O)O.Cc1cc(N=Nc2c(S(=O)(=O)O)cc3c(S(=O)(=O)O)c(N=Nc4c(C)c(C#N)c5nc6ccccc6n5c4O)ccc3c2O)c(OCCCS(=O)(=O)O)cc1N=Nc1nc2c(S(=O)(=O)O)cc(S(=O)(=O)O)cc2s1", "note": "[Example 13]", "values": [{"measurement": "coloring matter residual rate, light fastness test", "setting": "glossy paper 2", "result": "≥ 85", "unit": "%"}, {"measurement": "coloring matter residual rate, light fastness test", "setting": "glossy paper 3", "result": "≥ 85", "unit": "%"}]}
